Results deposited as PubChem BioAssay AID743454 (Peter MacCallum Cancer Centre, 2014)

Aim: 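Knock-downs lowering viability or raising caspase 3/7 activity in vorinostat-treated resistant cells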 (primary screen)
System: human HCT116-VR colon cancer cells, selected for vorinostat resistance
Knock-down reagent: siRNA pool against human genes, 40 nM siRNA pool
Time to read-out: vorinostat for 24 h, read-out about 72 h after transfection
Treatment: vorinostat at 2.5 µM final
Measured: 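Two measures, CellTiter-Fluor viability and luminescent caspase 3/7 activity, each as fold change against same-plate mock wells, mean of duplicates, then screen-wide robust z-score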
Reading the numbers: viability robust z-score: higher = more viable cells than screen typical; caspase robust z-score: higher = more caspase 3/7 activity than screen typical
Call rule: 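a knock-down is a hit when classed RV1 or RV2 for lowered viability, or CA1 or CA2 for caspase activation; those lethal without drug were dropped; hits were retested singly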
The whole screen tested about 18,000 reagents; below is a random part of them. 450 of them (2.5%) were called active. 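Single biological run; no consistent viability z cut-off exists, so the class columns, not z-scores, define the calls.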 Entries without a mark were called inactive.

no.	Target gene	viability hit class	caspase hit class	viability robust z-score	caspase robust z-score
1	SPTBN1 (spectrin beta, non-erythrocytic 1)	no change	no change	-1.46	0.45
2	ARHGEF1 (Rho guanine nucleotide exchange factor 1)	no change	no change	0.58	0.94
3	PPIP5K1 (diphosphoinositol pentakisphosphate kinase 1)	no change	no change	-0.76	0.6
4	PPP2R3C (protein phosphatase 2 regulatory subunit B''gamma)	no change	no change	-0.16	-0.98
5	OCLN (occludin)	no change	no change	1.49	-0.28
6	SPEN (spen family transcriptional repressor)	no change	no change	-1.71	2.22
7	RFX3 (regulatory factor X3)	no change	no change	0.76	-0.43
8	PLK4 (polo like kinase 4)	no change	no change	-1.38	4.23
9	MAP3K10 (mitogen-activated protein kinase kinase kinase 10)	no change	no change	0.29	-0.06
10	TUBGCP2 (tubulin gamma complex component 2)	no change	no change	0.2	1.96
11	PHF19 (PHD finger protein 19)	no change	no change	-1.51	-0.34
12	SCN2B (sodium voltage-gated channel beta subunit 2)	no change	no change	-0.05	0.22
13	MED8 (mediator complex subunit 8)	no change	no change	-0.76	2.35
14	ATE1 (arginyltransferase 1)	no change	no change	0.04	1.34
15	GLA (galactosidase alpha)	no change	no change	-0.3	0.55
16	PRR11 (proline rich 11)	no change	no change	0.46	0.36
17	STAM (signal transducing adaptor molecule)	no change	no change	1.78	1.16
18	CNTN4 (contactin 4)	no change	no change	0.15	-0.86
19	MAX (MYC associated transcriptional regulator X)	no change	no change	-0.48	-0.1
20	PLXNA2 (plexin A2)	no change	no change	0.33	1.08
21	STAU2 (staufen double-stranded RNA binding protein 2)	no change	no change	-0.84	-0.8
22	SLC35D3	no change	no change	-0.7	-0.62
23	CA10 (carbonic anhydrase 10 (inactive))	no change	no change	-1.41	-0.46
24	KLHL2 (kelch like family member 2)	no change	no change	0.26	-0.18
25	LPCAT3 (lysophosphatidylcholine acyltransferase 3)	no change	no change	1.12	1.26
26	TBC1D5 (TBC1 domain family member 5)	no change	no change	-0.75	-1.22
27	KDM7A (lysine demethylase 7A)	no change	no change	-0.9	-0.76
28	PSEN1 (presenilin 1)	no change	no change	0.16	-1.05
29	LRCH3	no change	no change	-0.88	0.12
30	NDUFAF2 (NADH:ubiquinone oxidoreductase complex assembly factor 2)	no change	no change	0.11	-0.86
31	GATC (glutamyl-tRNA amidotransferase subunit C)	no change	no change	0.18	-0.98
32	ZNF23 (zinc finger protein 23)	no change	no change	0.64	-0.42
33	SIGLEC1 (sialic acid binding Ig like lectin 1)	no change	no change	-1.29	-0.84
34	DYNAP (dynactin associated protein)	no change	no change	0.6	-0.66
35	FAM193B (family with sequence similarity 193 member B)	no change	no change	-0.36	0.44
36	RBFOX1 (RNA binding fox-1 homolog 1)	no change	no change	-0.34	0.07
37	HCFC2 (host cell factor C2)	no change	no change	0.39	0.08
38	SIVA1 (SIVA1 apoptosis inducing factor)	no change	no change	0.23	-0.98
39	PEX12 (peroxisomal biogenesis factor 12)	no change	no change	-0.54	3.52
40	FAM171A1 (family with sequence similarity 171 member A1)	no change	no change	0.77	-0.24
41	STING1 (stimulator of interferon response cGAMP interactor 1)	no change	no change	0.62	2.08
42	GNPDA1 (glucosamine-6-phosphate deaminase 1)	no change	no change	1.36	-0.55
43	CCDC183 (coiled-coil domain containing 183)	no change	no change	-0.21	-0.89
44	ARHGAP12 (Rho GTPase activating protein 12)	no change	no change	0.45	-0.62
45	MAPK14 (mitogen-activated protein kinase 14)	no change	no change	0.38	-0.42
46	GAD2 (glutamate decarboxylase 2)	no change	no change	0.64	-0.72
47	ADHFE1 (alcohol dehydrogenase iron containing 1)	no change	no change	-0.14	-0.06
48	MRPL46 (mitochondrial ribosomal protein L46)	no change	no change	-0.07	-1.34
49	LARP1B (La ribonucleoprotein 1B)	no change	no change	0.81	-0.74
50	C4orf17 (chromosome 4 open reading frame 17)	no change	no change	0.76	1.14
51	PPP1R12A (protein phosphatase 1 regulatory subunit 12A)	no change	no change	-1.39	1.24
52	UBQLN3 (ubiquilin 3)	no change	no change	0.94	-1.13
53	SRRD (SRR1 domain containing)	no change	no change	0.02	-0.98
54	N4BP2 (NEDD4 binding protein 2)	no change	no change	0.6	-0.12
55	SLC25A46	no change	no change	0.24	-0.89
56	GRK6 (G protein-coupled receptor kinase 6)	no change	no change	-0.46	2.19
57	WFDC1 (WAP four-disulfide core domain 1)	no change	no change	0.52	1.75

Not a retest: entries from further up.
no.	Target gene	viability hit class	caspase hit class	viability robust z-score	caspase robust z-score
21	STAU2 (staufen double-stranded RNA binding protein 2)	no change	no change	-0.84	-0.8
22	SLC35D3	no change	no change	-0.7	-0.62
23	CA10 (carbonic anhydrase 10 (inactive))	no change	no change	-1.41	-0.46
24	KLHL2 (kelch like family member 2)	no change	no change	0.26	-0.18
